Data reported in patent publication US20040138826A1, “Experimental design and data analytical methods for detecting and characterizing interactions and interaction thresholds on fixed ratio rays of polychemical mixtures and subsets thereof” (priority 2002, published 2004).

Assays:
rats = details: logit link
From the text: The endpoint of interest is neurotoxicity in rats as measured by a gait score dichotomized to indicate presence or absence of a gait abnormality (i.e., incoordination, loss of balance, etc.). The fixed-ratio ray under study was chosen based on the relative dietary exposure estimates of each chemical as projected by the U.S. EPA Dietary Exposure Evaluation Model (DEEM) and is given by (0.040:0.002:0.031:0.825:0.102) for ACE, DIA, CPF, MAL, DIM, respectively. […] (Note: Such a strategy can be extended for identifying the impact of the unidentified fraction in a complex mixture.)
The biological endpoint of interest is an indicator of neurotoxicity based on evidence of the presence or absence of a gait abnormality (Moser, 1995). In order to appropriately constrain the probability of a response to be between 0 and 1, a logit link function was used, i.e., g(μ)=log(μ/(1−μ)). It was assumed throughout that the variance changes as a binomial random variable such that Var(Y)=τμ(1−μ) (e.g., McCullagh and Nelder, 1989).
The resulting mixture experiment consisted of a vehicle control (n=14), ‘positive controls’ for ACE alone (6 and 30 mg/kg; n=6, 14, respectively), CPF alone (10, 20, 30 mg/kg; n=6, 8, 6, respectively), DIAZ alone (50 and 125 mg/kg; n=6, 14, respectively), MAL alone (350 mg/kg; n=14), DIM alone (10, 25, 50 mg/kg; n=6, 8, 6, respectively), and six total dose mixture concentrations (10, 55, 100, 200, 300 and 450 mg/kg; n=12 rats per dose group for a total of 72 rats exposed to a mixture of the chemicals) at a fixed mixing ratio ray of (0.040:0.002:0.031:0.825:0.102) for (ACE:DIA:CPF:MAL:DIM). Similarly, the design for a second fixed-ratio ray was based on a reduced number of the pesticides (omitting MAL) with the remaining pesticides at the same relative proportions as in the ‘full’ mixture study. The experiment consisted of a vehicle control (n=8), positive controls (n=8 per group) for ACE (30 mg/kg), CPF (20 mg/kg), DIA (125 mg/kg), and DIM (25 mg/kg), and six total dose mixture concentrations (1.75, 9.6, 17.5, 35, 52.5, and 78.8 mg/kg; n=12 rats per dose group) at a fixed mixing ratio ray of (0.229:0.011:0.177:0.583) for (ACE:DIA:CPF:DIM). Casey et al (2003a,b) describe the motor activity data in the mixture of these five pesticides.

healthy adult rats = tested on: healthy adult rats
From the text: To motivate the use of these fixed-ratio mixture ray designs consider a study which examines exposure to environmentally relevant pesticides. The OP pesticides chosen for study, based on usage patterns (i.e. pesticides used on same or similar crops) and market share (i.e. highest volume pesticides), were acephate, diazinon, chlorpyrifos, dimethoate, and malathion. Motor activity, a count of the number of passes made across a central area, was used to assess toxicity in healthy adult rats. A full five-pesticide fixed-ratio ray, given by (0.040:0.002:0.031:0.102:0.825) for (acephate:diazinon:chlorpyrifos:dimethoate:malathion), was chosen based on relative dietary exposure estimates of each chemical as projected by the U.S. EPA Dietary Exposure Evaluation Model (DEEM).
Single chemical data were collected approximately 18 months prior to the data along the full fixed-ration ray.
Fixed-ratio ray designs were chosen to study interactions among combinations of multiple pesticides. The pesticides chosen for these studies, based on usage patterns (i.e., pesticides used on the same or similar crops) and market share (i.e., highest volume pesticides), were acephate, diazinon, chlorpyrifos, dimethoate, and malathion. Motor activity, a count of the number of passes made across a central area, was chosen to assess the toxicity of these pesticides in healthy adult rats. The fixed-ratio ray under study was chosen based on the relative dietary exposure estimates of each chemical as projected by the U.S. EPA Dietary Exposure Evaluation Model (DEEM) and is given by (0.040:0.002:0.031:0.102:0.825) for acephate, diazinon, chlorpyrifos, dimethoate, and malathion respectively.
The five-pesticide study described in the introduction is used to illustrate the sample size and power methods developed in Section 3. Due to the high potential of aggregate exposure to OP pesticides, researchers were initially interested in testing the hypothesis of additivity, given in (5), along the full five-pesticide fixed-ratio ray, given by (0.040:0.002:0.031:0.102:0.825) for ([…]), that represents relative dietary exposure estimates. Single chemical data were collected and used to estimate an additivity model along the ray (analysis not shown). Since, the motor activity response is a count variable it was assumed that V(m)=m and the log link function (McCullagh and Nelder, 1989) was used to fit the generalized linear additivity model described in Section 2. […] Eighty-six animals were considered. Fourteen animals were evaluated in the control group. Twelve animals each were evaluated at 10, 55, 100, 200, 300, and 450 mg/kg. Summary statistics for the single chemical and mixture data are provided in the appendix.
The five-pesticide study described in the introduction is used to illustrate the design methodology developed in the following sections. Due to the high potential for aggregate exposure to OP pesticides, researchers were initially interested in testing the hypothesis of additivity, given in (4), along the full five-pesticide fixed-ratio ray, given by (0.040:0.002:0.031:0.102:0.825) for (acephate:diazinon:chlorpyrifos:dimethoate:malathion). Since motor activity response is a count variable, it was assumed that V(μ)=μ and the log link function (McCullagh and Nelder, 1989) was used to fit the generalized linear additivity model given in (1). […] Eighty-six animals were considered. Fourteen animals were evaluated in the control group. Twelve animals each were evaluated at 10, 55, 100, 200, 300, and 450 mg/kg.

[1] = additivity model (3), single chemical data, Example 3 Table 1
[2] = final SANR analysis, Example 3 Table 3
[3] = full SAR analysis, Example 3 Table 2
[4] = generalized linear model (3), log link, single chemical and full ray data, Examples 2 and 4 Table 1
[5] = threshold additivity model (2), SAR analysis, Example 1 Table 3

## COP(=O)(NC(C)=O)SC (centres unmarked) [Acephate, acephate]
rats; [1]
  Estimate of slope parameter β (gait abnormality): 0.1868
rats; [2]
  Estimate of slope parameter β (gait abnormality): 0.1615
rats; [3]
  Estimate of slope parameter β (gait abnormality): 0.1474
Healthy adult rats; [4]
  Estimate of slope parameter β (motor activity): −0.018
Healthy adult rats; [5]
  Estimate of slope parameter β (motor activity): −0.020

## CCOP(=S)(OCC)Oc1nc(Cl)c(Cl)cc1Cl [Chlorpyrifos, chlorpyrifos]
rats; [1]
  Estimate of slope parameter β (gait abnormality): 0.1605
rats; [2]
  Estimate of slope parameter β (gait abnormality): 0.1343
rats; [3]
  Estimate of slope parameter β (gait abnormality): 0.1250
Healthy adult rats; [4]
  Estimate of slope parameter β (motor activity): −0.025
Healthy adult rats; [5]
  Estimate of slope parameter β (motor activity): −0.026

## CCOP(=S)(OCC)Oc1cc(C)nc(C(C)C)n1 [Diazinon, diazinon]
rats; [1]
  Estimate of slope parameter β (gait abnormality): 0.0338
rats; [2]
  Estimate of slope parameter β (gait abnormality): 0.0276
rats; [3]
  Estimate of slope parameter β (gait abnormality): 0.0256
Healthy adult rats; [4]
  Estimate of slope parameter β (motor activity): −0.004
Healthy adult rats; [5]
  Estimate of slope parameter β (motor activity): −0.005

## CNC(=O)CSP(=S)(OC)OC [Dimethoate, dimethoate]
rats; [1]
  Estimate of slope parameter β (gait abnormality): 0.1711
rats; [2]
  Estimate of slope parameter β (gait abnormality): 0.1531
rats; [3]
  Estimate of slope parameter β (gait abnormality): 0.1335
Healthy adult rats; [4]
  Estimate of slope parameter β (motor activity): −0.0123
Healthy adult rats; [5]
  Estimate of slope parameter β (motor activity): −0.014

Read-outs that look alike come from different tables or passages of the source.
